Experimental data reported in US20080058373A1, “Compositions and Methods for Treating or Preventing Glaucoma or Progression Thereof” (priority 2006, published 2008).
The source gives many values for each of these; only a part stands here.

System: New Zealand White rabbits
Assay: Intraocular pressure (IOP) in rabbits, topical dosing four times daily
Format: in vivo
Details: treated right eyes, P.M. readings
Procedure: Seventy-five rabbits underwent two weeks of IOP training to condition them for IOP measurement. IOP was determined for both eyes of each animal using a Medtronic Solan, Model 30 classic pneumatonometer. Proparacaine hydrochloride 0.5% (1 drop) was delivered to each eye prior to IOP measurement. A two-point diurnal curve was established: IOP was recorded on Monday, Wednesday, and Friday of each week, at 8 a.m. and 12 p.m., with a ±1 hour range for each of these times. The time of the measurements was recorded.
On Days 1-31, animals received daily topical doses of the appropriate test article into the right eye. Animals were dosed four times per day, with doses administered 2 hours apart. Doses were administered using a calibrated 50-μL pipette. The eyelids were held close for 10 seconds immediately following dosing. The time of each dose administration was recorded.
Intraocular pressure (“IOP”) was determined for both eyes of each animal on Days 3, 5, 10, 12, 16, 18, 22, 24, 26, 30, and 32. IOP was evaluated with a Medtronic Solan, Model 30 classic pneumatonometer. Proparacaine hydrochloride 0.5% (1 drop) was delivered to each eye prior to IOP measurement. IOP was measured on Monday, Wednesday, and Friday of each week. A two-point diurnal curve was established: IOP was recorded at 8 a.m. and 12 p.m. on Day 3, and at 8 a.m. and 2 p.m. on later days, with a ±1 hour range for each of these times. The time of the measurements was recorded.
Descriptive statistics were prepared for IOP data of each treatment group (left and right eyes separately) at each measurement interval. The statistics included the number of observations (“N”), mean, standard deviation (“STD”), and standard error (“SEM”). Statistical analyses were conducted on IOP results using Statistical Analysis Systems (SAS Institute, Inc., Cary, N.C., V8.0). Parameters were evaluated using analysis of variance/GLM Procedure followed by Tukey's Standardized Range Test (Tukey, 1985) for post hoc comparisons of group means. The level of significance was set at a probability of p<0.05 for all statistical procedures. Group IOP means were compared at each interval, with left and right eyes compared separately.

`Cc1ccc2c(NCC(O)(CC(C)(C)c3cc(F)cc4c3OCC4)C(F)(F)F)cccc2n1` (centres unmarked) was tested, and the “Intraocular Pressure (MEAN)” value (Day 30, 1 mg/g (Group D)) was 21.8 mmHg, the “Intraocular Pressure (MEAN)” value (Day 30, 5 mg/g (Group C)) was 22.4 mmHg and the “Intraocular Pressure (MEAN)” value (Day 32, 1 mg/g (Group D)) was 22.9 mmHg. The “Intraocular Pressure (MEAN)” value (Day 32, 5 mg/g (Group C)) was 22.7 mmHg, the “Intraocular Pressure (MEAN)” value (Day 32, 10 mg/g (Group B)) was 23.3 mmHg and the “Intraocular Pressure (MEAN)” value (Pre-Study, 1 mg/g (Group D)) was 24.2 mmHg. For the same compound, the “Intraocular Pressure (MEAN)” value (Pre-Study, 5 mg/g (Group C)) was 24.5 mmHg and the “Intraocular Pressure (MEAN)” value (Pre-Study, 10 mg/g (Group B)) was 24.0 mmHg.
